Our source for the binding values is PMC12622308.

Sequences of proteins named here, by UniProt entry; tags and fusion partners are left off. A change or cut given only in a name is not applied to a line headed by its entry.
UniProt P11142: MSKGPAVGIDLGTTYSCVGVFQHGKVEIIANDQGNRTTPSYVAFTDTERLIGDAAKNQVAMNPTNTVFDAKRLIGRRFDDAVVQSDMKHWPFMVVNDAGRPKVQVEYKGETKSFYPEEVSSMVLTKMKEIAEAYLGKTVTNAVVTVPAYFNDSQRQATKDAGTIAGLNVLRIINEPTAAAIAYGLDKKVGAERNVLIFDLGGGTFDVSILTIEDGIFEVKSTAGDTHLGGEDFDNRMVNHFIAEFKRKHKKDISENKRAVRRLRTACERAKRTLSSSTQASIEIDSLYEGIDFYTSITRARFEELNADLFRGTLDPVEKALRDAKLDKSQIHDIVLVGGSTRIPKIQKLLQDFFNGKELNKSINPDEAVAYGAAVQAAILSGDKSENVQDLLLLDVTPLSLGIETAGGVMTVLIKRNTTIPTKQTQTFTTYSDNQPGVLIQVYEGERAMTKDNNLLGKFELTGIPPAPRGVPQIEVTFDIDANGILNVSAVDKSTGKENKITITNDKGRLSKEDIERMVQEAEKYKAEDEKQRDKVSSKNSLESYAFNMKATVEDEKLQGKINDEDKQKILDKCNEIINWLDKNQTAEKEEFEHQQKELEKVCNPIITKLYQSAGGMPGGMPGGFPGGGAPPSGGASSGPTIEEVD
UniProt P04406: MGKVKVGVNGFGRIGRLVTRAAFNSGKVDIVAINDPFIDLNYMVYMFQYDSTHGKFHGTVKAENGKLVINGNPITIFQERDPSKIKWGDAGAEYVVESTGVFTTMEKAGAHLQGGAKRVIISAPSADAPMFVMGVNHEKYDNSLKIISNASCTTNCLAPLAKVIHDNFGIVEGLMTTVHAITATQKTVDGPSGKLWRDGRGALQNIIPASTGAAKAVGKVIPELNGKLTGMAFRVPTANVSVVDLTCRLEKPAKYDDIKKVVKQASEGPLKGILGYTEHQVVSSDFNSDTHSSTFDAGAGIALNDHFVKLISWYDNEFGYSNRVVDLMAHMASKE
UniProt P25963: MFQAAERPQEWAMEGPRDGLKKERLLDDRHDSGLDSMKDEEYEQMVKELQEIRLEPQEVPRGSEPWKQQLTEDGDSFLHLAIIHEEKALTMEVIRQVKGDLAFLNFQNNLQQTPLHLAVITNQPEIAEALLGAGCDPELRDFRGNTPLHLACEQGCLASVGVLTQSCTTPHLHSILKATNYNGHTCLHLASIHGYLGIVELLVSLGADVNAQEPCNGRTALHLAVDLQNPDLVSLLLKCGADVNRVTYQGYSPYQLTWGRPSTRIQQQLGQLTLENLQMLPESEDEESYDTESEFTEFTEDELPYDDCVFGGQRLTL

No constants are given. Whether binding was seen depends on the method and setting. In cells and extracts the contact can be indirect. Some binding calls cover weakened binding; strength is not graded here. For some assays here: Where a sequence is shown, tags or fusion partners need not be part of it.

The target in one test is HSC70-HA WT (UniProt P11142). The experiment in a line: co-IP; HSC70 (WT, K557R or K557Q) with the endogenous CMA substrates IκBα and GAPDH, by Western blot; SIRT2 KD cells, or SIRT2 inhibited with TM or TM-P4-Thal.
A further test has as its target HSC70-HA K557R (UniProt P11142). The description is as above.
For test [1], the target named is T1, SIRT2-HA (HA-tagged Sirtuin 2) (UniProt Q8IXJ6).
T1 sequence: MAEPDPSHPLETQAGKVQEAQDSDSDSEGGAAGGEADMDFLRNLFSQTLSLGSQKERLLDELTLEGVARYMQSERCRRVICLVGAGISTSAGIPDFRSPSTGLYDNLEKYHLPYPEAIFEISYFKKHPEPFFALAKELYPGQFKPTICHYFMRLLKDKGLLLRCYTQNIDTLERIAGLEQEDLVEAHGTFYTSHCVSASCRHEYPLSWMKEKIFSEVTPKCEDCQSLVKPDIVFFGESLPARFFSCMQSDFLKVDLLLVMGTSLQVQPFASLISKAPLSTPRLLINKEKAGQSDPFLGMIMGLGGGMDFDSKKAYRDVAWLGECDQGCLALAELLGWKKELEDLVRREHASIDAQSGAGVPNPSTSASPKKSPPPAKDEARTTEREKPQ
The experiment in a line: co-IP; SIRT2-HA overexpressed in HEK293T or A549 cells, precipitated with HA-affinity beads, endogenous HSC70 detected by Western blot; nutrient-rich (DMEM) or amino acid starvation (EBSS 4 h). (In general: Immunoblotting shows a protein as a band on a membrane.)

Turning to “GAPDH, endogenous (from UniProt P04406 1-335)”, the binding result in the test with HSC70-HA WT and with HSC70-HA K557R was “binds” each time.
For “Heat shock cognate 71kDa protein (HSC70), endogenous (from UniProt P11142 1-646)”, the binding entry in test [1] was “binds”.
In the case of “IκBα, endogenous (from UniProt P25963 1-317)”, the binding entry with HSC70-HA WT and with HSC70-HA K557R was “binds” in each case.
